Experimental findings from article PMC6177440 are described below.

The chains behind the UniProt entries cited, without tags or fusion partners.
UniProt P10238: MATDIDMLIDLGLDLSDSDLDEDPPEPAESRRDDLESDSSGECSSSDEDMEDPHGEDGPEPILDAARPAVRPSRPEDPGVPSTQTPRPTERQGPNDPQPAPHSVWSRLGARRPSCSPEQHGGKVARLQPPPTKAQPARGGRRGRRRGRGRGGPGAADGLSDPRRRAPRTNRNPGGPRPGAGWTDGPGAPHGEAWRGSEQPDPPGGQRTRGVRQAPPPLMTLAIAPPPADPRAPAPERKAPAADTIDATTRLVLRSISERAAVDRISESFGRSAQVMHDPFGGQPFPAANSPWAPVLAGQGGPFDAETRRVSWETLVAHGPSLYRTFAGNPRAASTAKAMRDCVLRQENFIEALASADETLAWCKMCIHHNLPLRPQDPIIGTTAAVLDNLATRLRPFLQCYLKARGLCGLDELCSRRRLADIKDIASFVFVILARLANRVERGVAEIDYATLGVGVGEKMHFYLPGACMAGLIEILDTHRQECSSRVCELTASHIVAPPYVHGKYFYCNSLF

No constants are given. Whether binding was seen depends on the method and setting. In cells and extracts the contact can be indirect. Some results given as binding are weak or reduced against the parent protein; the word gives no strength. Where a sequence is shown, tags or fusion partners need not be part of it.

The test has as its target HSV-1 ICP27 (wild type, from HSV-1 KOS infection) (HSV-1 (strain KOS)) (UniProt P10238). Description: co-IP; HeLa cells transfected with Flag-tagged UIF constructs, infected 24 h later with HSV-1 KOS, WRL or ΔRGG (MOI 10) for 8 h; lysates (treated or not treated with RNase) immunoprecipitated with anti-ICP27 antibody P1119 on protein-G Dynabeads; blots probed with anti-Flag.

B1: Flag-epitope tagged UIF N-terminal region (residues 1-190) (domain or fragment, UniProt Q96QD9 1-190)
chain: MNRFGTRLVGATATSSPPPKARSNENLDKIDMSLDDIIKLNRKEGKKQNFPRLNRRLLQQSGAQQFRMRVRWGIQQNSGFGKTSLNRRGRVMPGKRRPNGVITGLAARKTTGIRKGISPMNRPPLSDKNIEQYFPVLKRKANLLRQNEGQRKPVAVLKRPSQLSRKNNIPANFTRSGNKLNHQKDTRQAT
As to B1, the binding entry is recorded as “binds”.

B2: Flag-epitope tagged UIF full length (residues 1-318) (protein, UniProt Q96QD9 1-318)
chain: MNRFGTRLVGATATSSPPPKARSNENLDKIDMSLDDIIKLNRKEGKKQNFPRLNRRLLQQSGAQQFRMRVRWGIQQNSGFGKTSLNRRGRVMPGKRRPNGVITGLAARKTTGIRKGISPMNRPPLSDKNIEQYFPVLKRKANLLRQNEGQRKPVAVLKRPSQLSRKNNIPANFTRSGNKLNHQKDTRQATFLFRRGLKVQAQLNTEQLLDDVVAKRTRQWRTSTTNGGILTVSIDNPGAVQCPVTQKPRLTRTAVPSFLTKREQSDVKKVPKGVPLQFDINSVGKQTGMTLNERFGILKEQRATLTYNKGGSRFVTVG
B2: the binding entry is “binds”.
